These are yes or no findings as the source states them, for the method shown. In cells and extracts the contact can be indirect. Some entries that bind do so weakly or less than the wild type.

Protein sequences, listed by entry. Tags and fused reporters are not part of them.
UniProt Q9R1E0: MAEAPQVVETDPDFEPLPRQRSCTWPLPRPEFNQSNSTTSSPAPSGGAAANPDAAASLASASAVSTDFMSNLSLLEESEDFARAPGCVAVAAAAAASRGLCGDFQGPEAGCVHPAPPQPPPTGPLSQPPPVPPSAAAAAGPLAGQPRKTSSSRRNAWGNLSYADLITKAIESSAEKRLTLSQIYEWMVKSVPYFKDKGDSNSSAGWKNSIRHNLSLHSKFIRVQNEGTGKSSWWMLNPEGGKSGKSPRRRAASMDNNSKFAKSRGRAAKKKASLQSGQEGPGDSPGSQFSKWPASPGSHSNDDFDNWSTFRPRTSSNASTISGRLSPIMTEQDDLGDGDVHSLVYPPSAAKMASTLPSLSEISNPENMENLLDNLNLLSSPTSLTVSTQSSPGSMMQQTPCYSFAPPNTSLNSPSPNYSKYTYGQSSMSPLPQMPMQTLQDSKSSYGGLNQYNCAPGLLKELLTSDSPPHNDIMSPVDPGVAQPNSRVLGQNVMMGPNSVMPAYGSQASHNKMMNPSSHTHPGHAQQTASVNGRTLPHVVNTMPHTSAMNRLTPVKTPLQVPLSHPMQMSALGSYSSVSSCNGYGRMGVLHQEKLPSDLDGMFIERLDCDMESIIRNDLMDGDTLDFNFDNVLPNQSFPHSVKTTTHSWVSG

Test [1] concerns the target Foxo1 transcription factor (mouse (endogenous in bone marrow-derived macrophages)) (UniProt Q9R1E0). In words: co-IP; lysate of LPS-stimulated BMMs in NP-40 lysis buffer (50 mM Tris pH 7.4, 10 mM EDTA, 150 mM NaCl, 1% NP-40); Foxo1 antibody or control IgG with protein A/G beads, 4 °C overnight; immunoblot. A general note: Immunoblotting shows a protein as a band on a membrane.

The target of test [2] is T1, β-catenin (mouse (endogenous in bone marrow-derived macrophages)), Q02248.
T1 chain: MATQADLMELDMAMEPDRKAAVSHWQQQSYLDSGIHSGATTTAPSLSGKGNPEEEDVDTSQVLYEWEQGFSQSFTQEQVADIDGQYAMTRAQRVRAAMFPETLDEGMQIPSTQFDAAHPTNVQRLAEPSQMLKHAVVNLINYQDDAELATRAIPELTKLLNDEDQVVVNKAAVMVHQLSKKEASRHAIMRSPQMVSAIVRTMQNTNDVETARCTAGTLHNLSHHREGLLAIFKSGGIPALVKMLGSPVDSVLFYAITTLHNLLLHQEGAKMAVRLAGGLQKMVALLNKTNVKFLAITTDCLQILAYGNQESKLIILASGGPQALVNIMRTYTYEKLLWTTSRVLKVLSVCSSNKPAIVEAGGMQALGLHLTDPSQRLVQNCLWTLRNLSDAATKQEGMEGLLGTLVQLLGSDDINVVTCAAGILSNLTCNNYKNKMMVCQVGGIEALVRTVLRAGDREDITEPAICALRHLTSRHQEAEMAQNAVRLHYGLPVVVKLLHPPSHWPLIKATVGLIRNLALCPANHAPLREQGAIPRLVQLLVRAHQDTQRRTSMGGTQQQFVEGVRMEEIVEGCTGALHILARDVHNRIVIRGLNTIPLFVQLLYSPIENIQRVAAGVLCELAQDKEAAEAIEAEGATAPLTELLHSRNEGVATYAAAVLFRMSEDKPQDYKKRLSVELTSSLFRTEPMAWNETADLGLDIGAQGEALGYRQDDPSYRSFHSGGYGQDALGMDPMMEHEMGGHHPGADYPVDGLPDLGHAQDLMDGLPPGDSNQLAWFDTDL
In words: co-IP; immunoprecipitation of β-catenin and TCF4 from LPS-stimulated BMMs; cells transfected with CRISPR-Foxo1 activation vector (1 and 3 µg), or from Foxo1 FL/FL and Foxo1 M-KO mice; precipitating antibody not stated. Particulars: remark: other sources report otherwise.

Turning to β-catenin (from UniProt Q02248 1-781), the binding result in test [1] was “binds”.

B1: T-cell factor 4 (TCF4), Q924A0 1-459 (protein)
chain: MPQLNGGGGDDLGANDELISFKDEGEQEEKNSENSSAERDLADVKSSLVNESETNQDSSSDSEAERRPPPRSESFRDKSRESLEEAAKRQDGGLFKGPPYPGYPFIMIPDLTSPYLPNGSLSPTARTYLQMKWPLLDVQAGSLQSRQTLKDARSPSPAHIVSNKVPVVQHPHHVHPLTPLITYSNEHFTPGNPPPHLPADVDPKTGIPRPPHPPDISPYYPLSPGTVGQIPHPLGWLVPQQGQPVYPITTGGFRHPYPTALTVNASMSRFPPHMVPPHHTLHTTGIPHPAIVTPTVKQESSQSDVGSLHSSKHQDSKKEEEKKKPHIKKPLNAFMLYMKEMRAKVVAECTLKESAAINQILGRRWHALSREEQAKYYELARKERQLHMQLYPGWSARDNYGKKKKRKRDKQPGETNEHSECFLNPCLSLPPITDLSAPKKCRARFGLDQQNNWCGPCSL
For B1, the binding result in test [2] is recorded as “binds”.

For the origin of these results see paper PMC8167164.
